PubChem BioAssay (NCATS)
Several values for one entry are separate records, joined by “and”; a condition that tells them apart may be missing. Equal entries are not always repeated. This list was built around the results that the source calls inconclusive (neither active nor inactive); the mix of calls is not that of the screen. Potencies of inconclusive entries are doubtful fits and often do not repeat. Activity calls are given as the source filed them. Calls follow the shape of the dose curve; as a rule, active = well fitted curve in the direction sought with a large enough effect; inconclusive = small, poorly fitted or top-dose-only effect, or another doubt; inactive = no such curve, though single readings can be large; an effect the other way counts as inactive or inconclusive.

Tests used:
[1] = Quantitative High-Throughput drug screen in 47 multiple myeloma cell lines against the NCATS MIPE library collection: KMS12BM_JCRB cell viability assay (AID 1918971); conditions: KMS12BM myeloma viability, CellTiter-Glo ATP, 48 h; viability, % of DMSO: at 45.8 µM (top of the series); also: nearly all actives have a fitted effect of over 35% in size
Method in brief: (§1)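 Inhibition of cell viability is measured here. Each line was plated at 500 cells per well, treated with MIPE 4.0 drugs, kept 48 hours at 37C, then assayed for ATP content by CellTiter-Glo luminescence.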

[2] = Quantitative High-Throughput drug screen in 47 multiple myeloma cell lines against the NCATS MIPE library collection: KMS12PE_JCRB cell viability assay (AID 1918972); also: nearly all actives have a fitted effect of over 30% in size
Method in brief: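 Myeloma cell lines, 500 cells per well, exposed to MIPE 4.0 library compounds for 48 h at 37C, 5% CO2. Viability from ATP by CellTiter-Glo luminescence; normalised to DMSO (100%) and media-only (0%) wells.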

[3] = Quantitative High-Throughput drug screen in 47 multiple myeloma cell lines against the NCATS MIPE library collection: KMS20_JCRB cell viability assay (AID 1918973); conditions: CellTiter-Glo ATP, 48 h; viability (% of DMSO): at 45.8 µM (top of the series); also: nearly all actives have a fitted effect of over 45% in size
Method in brief: (§2)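 Viability readout: CellTiter-Glo luminescence following 5 min room-temperature incubation with reagent. Prior exposure: 48 h, 37C, humidified 5% CO2, 500 cells per well.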

[4] = Quantitative High-Throughput drug screen in 47 multiple myeloma cell lines against the NCATS MIPE library collection: KMS26_JCRB cell viability assay (AID 1918975); conditions: KMS26 myeloma cells viability, CellTiter-Glo ATP, 48 h; viability (% of DMSO): at 45.8 µM (top of the series); also: nearly all actives have a fitted effect of over 45% in size
Method in brief: as §1

[5] = Quantitative High-Throughput drug screen in 47 multiple myeloma cell lines against the NCATS MIPE library collection: MOLP8_DSMZ cell viability assay (AID 1918977); conditions: MOLP8 myeloma viability, CellTiter-Glo ATP luminescence, 48 h; viability (% of control): at 45.8 µM (top of the series); also: nearly all actives have a fitted effect of over 45% in size
Method in brief: (§3)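 500 cells/well per myeloma line exposed to pinned MIPE 4.0 compounds for 48 h at 37 °C, 5% CO2. Viability read as ATP by CellTiter-Glo luminescence, normalised to DMSO-only (100%) and media-only (0%) wells.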

[6] = Quantitative High-Throughput drug screen in 47 multiple myeloma cell lines against the NCATS MIPE library collection: NCIH929_DSMZ cell viability assay (AID 1918978); conditions: NCI-H929 myeloma viability, CellTiter-Glo ATP, 48 h; viability, % of control: at 45.8 µM (top of the series); also: nearly all actives have a fitted effect of over 35% in size
Method in brief: as §3

[7] = Quantitative High-Throughput drug screen in 47 multiple myeloma cell lines against the NCATS MIPE library collection: MM1S_ATCC cell viability assay (AID 1918980); conditions: MM1S myeloma viability, CellTiter-Glo ATP luminescence, 48 h; viability (% of control): at 45.8 µM (top of the series); also: nearly all actives have a fitted effect of over 45% in size
Method in brief: as §3

[8] = Quantitative High-Throughput drug screen in 47 multiple myeloma cell lines against the NCATS MIPE library collection: KMS21BM_JCRB cell viability assay (AID 1918974); conditions: ATP luminescence, 48 h; viability: at 45.8 µM (top of the series) unless noted
Method in brief: as §2

[9] = Quantitative High-Throughput drug screen in 47 multiple myeloma cell lines against the NCATS MIPE library collection: OCIMY1_PLB cell viability assay (AID 1918979); also: nearly all actives have a fitted effect of over 35% in size
Method in brief: as §3

[10] = Quantitative High-Throughput drug screen in 47 multiple myeloma cell lines against the NCATS MIPE library collection: MMM1_PLB cell viability assay (AID 1918976); also: nearly all actives have a fitted effect of over 35% in size
Method in brief: as §3
Potency is read from the fitted curve at half-maximal effect.

Structure (SMILES) | Potency [1] | Potency [2] | Potency [3] | Potency [4] | Potency [5] | Potency [6] | Potency [7] | Potency [8] | Potency [9] | viability (% of control) [7] | Potency [10]
CC(C=CC1=C(C)CCCC1(C)C)=CC=CC(C)=CC(=O)O | inconclusive: 26.4 µM [cytotoxic, single point] and inconclusive: 4.18 µM [cytotoxic, full curve, poor fit] | inconclusive: 18.7 µM [cytotoxic, partial curve] and inconclusive: 9.35 µM [cytotoxic, partial curve, poor fit] | inconclusive: 37.2 µM [cytotoxic, single point] and inconclusive: 6.62 µM [cytotoxic, full curve, poor fit] | inconclusive: 33.2 µM [cytotoxic, single point] | inconclusive: 7.4 nM [rising, full curve, poor fit] and inconclusive: 3 nM [rising, full curve, poor fit] | active: 18.7 µM and active: 6.62 µM | inconclusive: 20.9 µM [cytotoxic, partial curve, poor fit] |  |  |  | 
Cc1ccccc1C(C(=O)NC1CCCC1)N(C(=O)Cn1cnc2ccccc21)c1cccc(F)c1 (centres undefined) | active: 14.8 µM | inconclusive: 0.0187 µM [cytotoxic, full curve, poor fit] | inconclusive: 14.8 µM [cytotoxic, partial curve, poor fit] | inconclusive: 16.6 µM [cytotoxic, partial curve, poor fit] | inconclusive: 13.2 µM [cytotoxic, partial curve, poor fit] |  |  | inconclusive: 33.2 µM [rising, partial curve] | inactive |  | 
COc1cc(Oc2ccnc3cc(OC)c(OC)cc23)ccc1NC(=O)NC(C)c1nccs1 (centres undefined) | inconclusive: 20.9 µM [cytotoxic, partial curve, poor fit] | inconclusive: 11.8 µM [cytotoxic, single point] | inconclusive: 0.59 µM [cytotoxic, full curve, poor fit] | inconclusive: 10.5 µM [cytotoxic, full curve, poor fit] | inactive |  |  | inconclusive: 37.2 µM [rising, partial curve] | inconclusive: 26.4 µM [cytotoxic, single point] | inconclusive: 109% [cytotoxic] | 
Cc1ccc(-n2nc(C(C)(C)C)cc2NC(=O)Nc2ccc(OCCN3CCOCC3)c3ccccc23)cc1 | inconclusive: 33.2 µM [cytotoxic, single point] | inconclusive: 18.7 µM [cytotoxic, partial curve] | inconclusive: 8.33 µM [cytotoxic, partial curve, poor fit] |  | inconclusive: 13.2 µM [cytotoxic, partial curve, poor fit] |  |  |  |  |  | active: 20.9 µM
O=c1oc2cc(O)ccc2s1 | inactive | inactive | inactive | inactive | inconclusive: 18.7 µM [cytotoxic, partial curve, poor fit] |  | active: 0.935 µM | inconclusive: 16.6 µM [cytotoxic, partial curve, poor fit] |  |  | 
CCCCC(CC)COC(=O)C(C#N)=C(c1ccccc1)c1ccccc1 (centres undefined) | inconclusive: 20.9 µM [cytotoxic, partial curve, poor fit] | inactive | inactive | inactive | inactive | inactive | inconclusive: 0.0148 µM [rising, full curve, poor fit] |  | inactive |  | inconclusive: 0.0264 µM [rising, full curve]
O=c1cc(N2CCOCC2)oc2c(-c3ccccc3)cccc12 | active: 14.8 µM | inactive | inconclusive: 4.18 µM [cytotoxic, full curve, poor fit] |  | active: 7.43 µM | inconclusive: 7.43 µM [cytotoxic, full curve] |  | inactive | active: 11.8 µM |  | 
C=CC(=O)Nc1cccc(Sc2nc(Nc3ccc(N4CCN(C)CC4)cc3)ncc2Cl)c1 | inconclusive: 33.2 µM [cytotoxic, single point] | inconclusive: 2.64 µM [cytotoxic, full curve, poor fit] | inconclusive: 1.05 µM [cytotoxic, full curve, poor fit] | inconclusive: 16.6 µM [cytotoxic, partial curve, poor fit] | inconclusive: 4.69 µM [cytotoxic, partial curve, poor fit] | inconclusive: 2.96 µM [cytotoxic, full curve, poor fit] |  |  | inconclusive: 33.2 µM [cytotoxic, single point] |  | 
N[C@H](CSC(c1ccccc1)(c1ccccc1)c1ccccc1)C(=O)O | inconclusive: 0.0012 µM [rising, full curve] | inconclusive: 33.2 µM [cytotoxic, single point] | inconclusive: 13.2 µM [cytotoxic, partial curve, poor fit] | inconclusive: 2.35 µM [cytotoxic, partial curve, poor fit] | inconclusive: 3.72 µM [cytotoxic, full curve, poor fit] | inconclusive: 13.2 µM [cytotoxic, partial curve, poor fit] | active: 13.2 µM |  | inconclusive: 29.6 µM [cytotoxic, single point] |  | inactive
O=C1c2c(O)cc(O)cc2O[C@H](c2cc(O)c(O)c(O)c2)[C@H]1O | inconclusive: 26.4 µM [cytotoxic, partial curve, poor fit] | inactive | inconclusive: 0.264 µM [rising, full curve, poor fit] |  |  | inactive |  | inconclusive: 20.9 µM [rising, partial curve] | inconclusive: 16.6 µM [cytotoxic, partial curve] |  | active: 10.5 µM
Cc1ccc(C(=O)Nc2ccc(S(=O)(=O)O)c3cc(S(=O)(=O)O)cc(S(=O)(=O)O)c23)cc1NC(=O)c1cccc(NC(=O)Nc2cccc(C(=O)Nc3cc(C(=O)Nc4ccc(S(=O)(=O)O)c5cc(S(=O)(=O)O)cc(S(=O)(=O)O)c45)ccc3C)c2)c1 | inactive | inactive | inconclusive: 0.0264 µM [cytotoxic, full curve, poor fit] | inconclusive: 4.18 µM [cytotoxic, partial curve, poor fit] | inactive |  | inconclusive: 0.001 µM | inactive |  |  | 
Cc1cn([C@@H]2O[C@H](CO)[C@@H](O)[C@H]2F)c(=O)[nH]c1=O | inconclusive: 0.0015 µM [rising, full curve, poor fit] | active: 13.2 µM | inconclusive: 0.0019 µM [cytotoxic, full curve, poor fit] | inconclusive: 29.6 µM [cytotoxic, single point] | inconclusive: 18.7 µM [rising, partial curve, poor fit] |  | inconclusive: 37.2 µM [cytotoxic, single point] |  |  |  | 
CC[N+](CC)(CC)CCOc1cccc(OCC[N+](CC)(CC)CC)c1OCC[N+](CC)(CC)CC | inconclusive: 20.9 µM [cytotoxic, partial curve, poor fit] | inconclusive: 0.0418 µM [cytotoxic, full curve, poor fit] | inconclusive: 3.72 µM [cytotoxic, full curve, poor fit] | inactive | inconclusive: 0.0743 µM [cytotoxic, full curve, poor fit] |  | inactive | inconclusive: 0.0047 µM [cytotoxic, full curve, poor fit] |  |  | 
CC(C)[C@H](CO)Nc1nc(Nc2ccc(C(=O)O)c(Cl)c2)c2ncn(C(C)C)c2n1 | inconclusive: 37.2 µM [cytotoxic, partial curve, poor fit] | inconclusive: 13.2 µM [cytotoxic, partial curve, poor fit] | inconclusive: 18.7 µM [cytotoxic, partial curve, poor fit] | inconclusive: 20.9 µM [cytotoxic, partial curve, poor fit] | inconclusive: 18.7 µM [cytotoxic, partial curve, poor fit] |  | inconclusive: 33.2 µM [cytotoxic, single point] |  |  |  | 
CCn1cc(C(=O)O)c(=O)c2cc(F)c(N3CCNC(C)C3)c(F)c21 (centres undefined) | inactive | inactive | inactive | inactive | inactive |  | inconclusive: 0.0019 µM [rising, full curve, poor fit] |  |  |  | inconclusive: 0.0074 µM [rising, full curve]
CON=C(C(=O)N[C@@H]1C(=O)N2C(C(=O)OCOC(=O)C(C)(C)C)=C(C=Cc3scnc3C)CS[C@H]12)c1csc(N)n1 | inactive | inconclusive: 33.2 µM [cytotoxic, single point] | inactive | inconclusive: 1.18 µM [cytotoxic, full curve, poor fit] | inactive |  | inconclusive: 26.4 µM [cytotoxic, single point] |  | inconclusive: 0.0053 µM [rising, full curve, poor fit] |  | inconclusive: 0.0059 µM [rising, full curve, poor fit]

Taken from above.
Potency [3], CC(C)[C@H](CO)Nc1nc(Nc2ccc(C(=O)O)c(Cl)c2)c2ncn(C(C)C)c2n1 reads inconclusive: 18.7 µM [cytotoxic, partial curve, poor fit]
Potency [9], C=CC(=O)Nc1cccc(Sc2nc(Nc3ccc(N4CCN(C)CC4)cc3)ncc2Cl)c1 reads inconclusive: 33.2 µM [cytotoxic, single point]
